This is an account of results in patent US11718589B2, “Compositions and methods of modulating short-chain dehydrogenase” (CASE WESTERN RESERVE UNIVERSITY, priority 2017, dated 2023).

Sequences of proteins named here, by UniProt entry; tags and fusion partners are left off.
UniProt P15428, whole entry: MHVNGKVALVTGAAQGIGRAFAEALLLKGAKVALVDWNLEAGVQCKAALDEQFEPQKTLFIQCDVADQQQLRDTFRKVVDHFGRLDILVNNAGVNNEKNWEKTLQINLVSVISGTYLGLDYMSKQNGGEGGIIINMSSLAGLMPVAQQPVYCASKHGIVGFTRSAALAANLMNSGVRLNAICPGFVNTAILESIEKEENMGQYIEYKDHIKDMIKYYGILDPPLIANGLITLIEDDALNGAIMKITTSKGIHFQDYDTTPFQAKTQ

A word on the IC50: it is the concentration needed to halve the response being measured.

In the experiment the target is recombinant 15-PGDH (Homo sapiens (Human), UniProt P15428). The experiment is described as follows: Enzyme inhibition of recombinant 15-PGDH, in vitro assay. In kind it is biochemical. The settings on record: read-out: Enzyme inhibition (IC50); recombinant human 15-PGDH.

Each structure is given as a SMILES string. The structures given here were assigned with low confidence; some may be wrong.

Take `O=C(c1cc2ncc(-c3cccs3)cn2n1)N1CCCCC1`: the IC50 was 100 nM.
